The DeepSol protein solubility set

Test: soluble on expression in E. coli; label from the status in PepcDB or PDB records

Sequence | soluble on expression in E. coli
MSLKSERRGIHVDQSDLLCKKGCGYYGNPAWQGFCSKCWREEYHKARQKQIQEDWELAERLQREEEEAFASSQS | soluble
IDRQSLFVNVGERTNITGSARFARLIREDNYTEALEVALQQVEAGAQVIDINMDEGMLDSKKAMVTFLNLIAGEPDISRVPIMIDSSKWEVIEAGLKCIQGKGIVNSISMKEGVEQFIHHARLCKRYGAAVVVMAFDEQGQADTEARKKEICKRSYDILVNEVGFPPEDIIFDPNIFAIATGIEEHNNYAVDFINACAYIRDELPHALTSGGVSNVSFSFRGNNPVREAIHSVFLLHAIRNGLSMGIVNAGQLEIYDQIPAELRDCVEDVVLNRNPEGTEALLAIADKYKGDG | not soluble
MPLLSQHSRGGCSSESSRVALHCCSNLGPGLGGAPDVPHPPLKIPGGRGNSQRDHSLSASILYSDERLNVTEEPTSNDKTRVLSIQCTLTEAKQVTWRAVWNGGGLYIELPAGPLPEGSKDSFAALLEFAEEQLRADHVFICFPKNREDRAALLRTFSFLGFEIVRPGHPLVPKRPDACFMVYTLEREDPGEED | soluble
MLSARSFLSSARTIARSSLMSARSLSDKPKGHVIGIDLGTTNSCVSIMEGKTPKVIENAEGVRTTPSTVAFTADGERLVGAPAKRQAVTNSANTLFATKRLIGRRYEDPEVQKDLKVVPYKIVKASNGDAWVEAQGKVYSPSQVGAFVLMKMKETAESYLGTTVNNAVVTVPAYFNDSQRQATKDAGQISGLNVLRVINEPTAAALAYGLDKDAGDKIIAVYDLGGGTFDVSILEIQKGVFEVKSTNGDTFLGGEDFDHALVHHLVGEFKKEQGVDLTKDPQAMQRLREAAEKAKCELSSTTQTDINLPYITMDQSGPKHLNLKLTRAKFEQIVGDLIKRTIEPCRKALHDAEVKSSQIADVLLVGGMSRMPKVQATVQEIFGKVPSKAVNPDEAVAMGAAIQGAVLAGDVTDVLLLDVTPLSLGIETLGGIMTKLITRNTTIPTKKSQVFSTAADGQTQVQIKVFQGEREMATSNKLLGQFSLVGIPPAPRGVPQVEVTFDIDANGIVNVSARDRGTGKEQQIVIQSSGGLSKDQIENMIKEAEKNAAEDAKRKELVEVINQAEGIIHDTEAKMTEFADQLPKDECEALRTKIADTKKILDNKDNETPEAIKEACNTLQQQSLKLFEAAYKNMAAKNSGGDAQEAKTAEEPKKEQN | not soluble
GPGSMSLRVVDVCGRATGRLILVGDIHGCLDQLRELLVKVHFANAVVRRCPTLLTTSSSSASSLSRAGPLPSRGGAPSMCIPAVLKPGPLGESASPSAEDGAVEDVCVFVGDLVNKGPDSYGVVRFLRDIGAIGVLGNHDAALLQLSEKLRADVPLTDKEASSSLYPLALHCPDDVFAFMMSVPHILCFHAYRLIVVHAGIDPSIPLAAQSVEAVTRMRNLVKAKKYWRQPTNEATGQPAHVALSVSAAFATLERPKLGANWGVKWSELARKLHGSVAGEEASDRSSDRSRGRSRSGGSGTGDGADDSGKKKPKKADEDVSKWRRRIHRDYTDFTVVYGHDAKRRLQVYPYAYGLDSGCVYGGELTGLVWPSTLVSVPGWTDPSPPRKSKV | soluble
SAKFILRKAEPKDVSDILRLIKELAKFEEMEEQVVLTEKELLEDGFGDHPFYHCVVAEVPKDNQSIEGYTVVGFAMYYFTYDPWIGKLLYLEDFYVMKEFRGYGMGSEILKMLSETAVKTRCSGMHFIVAEWNTTSIEFYKRRGASDLSHEEGWRLYEIDKCNLLKMSSK | soluble
MPVSPSSVSVLPPTSLEQILRIRAERNQRTPKCARCRNHGTTSALKGHKRYCQWKDCMCAKCTLIAERQRVMAAQVALRRQQSQEERDARDLEVLLGSAGNANDLLDILRLDAGEHHGKNHASPTTNNNNNTEEKYEDSQGQRSSPSSPTGSETVVSTSSPPELSSESTPNTSGSVIPTSPVFKPNGYSSMPMFNPVYGRPFMRFPMFSVMPHFFGTPSMSDFASAASLAAPPAFFSAQPTIATSSPSTIFPQTAPLDYSHRLMKNEEAEEEYRENDKTF | not soluble
MDSSTHSTADFGRLVWISDEAEGFVAARITDIAENGFTLATEKTSETVNRRYEDTWACEEDPQKSVEDNCALVHLNEATLLNNCRLRYANGKIYTYVANILISINPYQLIDGLYSPETIKEYRGKSLGQMEPHIFAIADKAYREMRRIKTSQSIIVSGESGAGKTESQKAVLKYLCENWGTDAGPIQQRLLETNPILEAFGNAKTLRNNNSSRFGKFVQIHFSDNGTVAGGFVSHYLLETSRVCRQAAGERNYHIFYQLIAGSSPDLYKKLRLAPASSFNYLKHGATLFFVNSKSSLKTDASRFSETNSSVSDSIISDIDDFAKLERALALSGVSDDEKMFIWSTVAGILHLGNIEFEENASDSRGGCMITSGTENSLMAAAELLGLEPEEMKLGLCARIMQTTKGGVKGTLIRVPLKAHEASAGRDALAKAIYSKLFDWLVAQINKSIPFEKSTGYIGVLDVAGFEYFAVNSFEQFCINFCNEKLQHFFNERILKQEQEMYEAEGLNIQKIEFTDNLDCIELFEKKASGLFDLLDEEAKLPRATFQHFTQRAHESNKNHFRLDAPRKSKVKSHREMRDDEGLLIRHYAGTVCYETRYFVEKNNDQLHNSLEMLIEQSSFPLVVSLFTSEATGAVKTGGRLKAVSVGAKFKSQLSSLLDKLNNTGTHFVRCVKPNSQMKAWHFDGSAILGQLQCAGMASVLRLMQEGFPSRTSFADLYAMYEKNLPPSLARLDPRLFSKCLFHALGLDQNDFQFGNTKVFFTAGKFAEFDQMMKQDPETVMELISKVTDWLVKARWRKVQYGAWSVIKLKNKILYRAEKIKKIQAWIRGYLVRKRFHKRLAIFRKACALLENSREMTDILARMNESSQDKWREAADSTTGELDELVKTIKNDDLNTEIDRAVKCYEDCVKRVDSIIADLKLQLENDELAEVERARKEAEDKERREAEEKAAAEQEKILRRKMEEEREKAQKEYELQLEMQKQKLAAEAEEEVKRRNKEERDRLDAAVSSRLASSDGVALVAQEASAAPPKQQSKYDLGNWKYADLRDAINTSNDMELLVACKEEFHRRLRIYNEWKSKNSANRDVPPTRAPLTVYNQQKPSSSSMMVSRVQAAPHLNPALTQQRYFKVSFATDNKKKNGGSQSGMWYAHFNGQYIRRQLTIRPSQKPQLLVAGKDDLQMCELPLEQTGLLRKKGAEISSNDFETMWYHYGGKPIQEWTP | not soluble
MSKRDYYEVLGVERGATEADLKKAYRRLAMKYHPDRNPGDKESEDKFKEANEAYEVLSDASKRAAFDQYGHAGVDPSMGGGGAGFGGANFSDIFGDVFSDFFGGGGRGGGRGGAQRGSDLRYTLELNLEEAVRGTTVSIRVPTLVNCQPCDGSGAKKGSTPSTCPTCGGIGQVRMQQGFFSVQQTCPRCHGQGKIITDPCTSCHGEGRVEEYKTLSVKVPAGVDTGDRIRLSGEGEAGTHGGPTGDLYVVISVREHEIFQRDGKHLYCEVPISYTDAALGGELEVPTLDGRVKLKIPEGTQTGKQFRLRGKGVAPVRGGGAGDLLCRVAVETPVLEHHHHHH | not soluble
MNRKASVSKELNAKHSKILEALLKHPDNRECADCRSKAPRWASVNLGIFICMQCSGIHRSLGVHISQVRSITLDTWLPDQVAFMKSTGNAKGNEYWESELPQHFERSSSDTFIRAKY | not soluble
SDSCVIPLRHGGLSLVQTTDFFYPLVEDPYMMGRIACANVLSDLYAMGITECDNMLMLLSVSQKMNEKERDLVLPLMMKGFRDAAEEGGTSVTGGQTVINPWIIIGGVASVVCQPNDFILPDGAVPGDVLVLTKPLGTQVAVNAHQWLDIPEKWNKIKLVISREEVEQAYQEAMLNMATLNRTAAALMHKFNAHAATDITGFGIIGHARNLAKQQKNDVAFVIHNLPIISKMAAISKAGGNLFGLLQGTSSETSGGLLICLPREQAARFCAEMKSSRMGLLGAGQDGGVGDGQQAWIIGIVEKGNRCARIIDKPRIIEVPYRGSVVSVQEGSNNNASPPEVQLA | soluble
MRSDQIKKGLKQAPARAMLRAVGVGDEDFGRPFVGVVNTFTDGMPCNFHLRELAQHLKAGLREAGLFPFEFGAPAISDGISMGTPGMRASLVSREVIADSVELIAQGYLYDGMVGLSACDKTIPGTAMGVIRSGVPGMVLYGGTIAPGEWQGRKLTIVEVFEAVGQRAAGKISEEELLEIERRAIPGPGACGGQYTANTMAMALEALGLSPVGYNAIPAVHPEKERATKEAGKILAWAIAHDWKPKDFLTRKSFLNAVAAVAATGGSTNAVLHLLALAKEAGVELSLDDFDQISRKTPVIADLRPWGTYTAWELYEAGGTALVFKRLLEAGLLFGEEKTLTGRTLAEEVERAYREQEGQKVVFPVEKALKPHGGLVVLKGNLAPQGAVLKLAGTERTSFEGPARVFDSEEAAMEKVLKGEIRPGDVVVIRYVGPKGAPGMPEMLSVTSAIVGEGLGPEVALLTDGRFSGGTRGLMIGHIAPEAFVGGPIALLEEGDRIRIDVEGRRLEVLLPEEELERRRARWRPRPPAFTHGLFARYAALVRQADEGAVLEDPL | soluble
MAQKGVLGPGQLGAVAILLYLGLLRSGTGAEGAEAPCGVAPQARITGGSSAVAGQWPWQVSITYEGVHVCGGSLVSEQWVLSAAHCFPSEHHKEAYEVKLGAHQLDSYSEDAKVSTLKDIIPHPSYLQEGSQGDIALLQLSRPITFSRYIRPICLPAANASFPNGLHCTVTGWGHVAPSVSLLTPKPLQQLEVPLISRETCNCLYNIDAKPEEPHFVQEDMVCAGYVEGGKDACQGDSGGPLSCPVEGLWYLTGIVSWGDACGARNRPGVYTLASSYASWIQSKVTELQPRVVPQTQESQPDSNLCGSHLAFSSAPAQGLLRPILFLPLGLALGLLSPWLSEH | soluble
MAHHHHHHMPKKSMHATRNDLPSNTKTTMIALLNENLAATIDLALITKQAHWNLKGPQFIAVHEMLDGFRAELDDHVDTIAERAVQIGGTAYGTTQVVVKESRLKPYPTDIYAVHDHLVALIERYGDVANLVRKSIKDADDAGDDDTADIFTAASRSLDKALWFLEAHVQESN | soluble
SMVLKVEELVTGKKNGNGEAGEFLPEDFRDGEYEAAVTLEKQEDLKTLLAHPVTLGEQQWKSEKQREAELKKKKLEQRSKLENLEDLEIIIQLKKRKKYRKTKVPVVKEPEPEIITEPVDVPTFLKAALENKLPVVEKFLSDKNNPDVCDEYKRTALHRACLEGHLAIVEKLMEAGAQIEFRDMLESTAIHWASRGGNLDVLKLLLNKGAKISARDKLLSTALHVAVRTGHYECAEHLIACEADLNAKDREGDTPLHDAVRLNRYKMIRLLIMYGADLNIKNCAGKTPMDLVLHWQNGTKAIFDSLRENSYKTSRIATF | soluble
MSGHPGSWEMNSVAFEDVAVNFTQEEWALLDPSQKNLYRDVMQETFRNLASIGNKGEDQSIEDQYKNSSRNLSSFQIHQRNHTGEKPYECMECGKALGFSRSLNRHKRIHTGEKRYECKQCGKAFSRSSHLRDHERTHTGEKPYECKHCGKAFRYSNCLHYHERTHTGEKPYVCMECGKAFSCLSSLQGHIKAHAGEEPYPCKQCGKAFRYASSLQKHEKTHIAQKPYVCNNCGKGFRCSSSLRDHERTHTGEKPYECQKCGKAFSRASTLWKHKKTHTGEKPYKCKKM | soluble
